Measurements reported in the supplement of paper PMC8551327.
Several values for one entry are separate records, joined by “and”; a condition that tells them apart may be missing. Equal values may be shown once. Where a name gives a salt, the structure may show the parent alone. The list shows a part of the results. Cut-off read from the data, not from the text of the source: active = 1.25 or more and inactive = the rest. Single values are uncertain, as repeats are few or missing.

These compounds were tested on Kcc2-LUC knock-in mouse primary cortical neurons (Kcc2 promoter reporter) (assay: Kcc2 promoter-driven luciferase activity relative to vehicle control (fold of vehicle (ratio)); higher = stronger Kcc2 promoter activation (Kcc2 expression enhancer)). Conditions: 100 nM; 48 h.
With `Cc1ccccc1NC(=O)C=NO` [2-(Hydroxyimino)-N-(2-methylphenyl)acetamide] the “Kcc2 promoter-driven luciferase activity” value was inactive: 0.99. `[Mo]` [hexapotassium] was tested, and the “Kcc2 promoter-driven luciferase activity” value was inactive: 1. `COc1cccc2c1C(=O)c1c(O)c3c(c(O)c1C2=O)C[C@@](O)(C(C)=O)C[C@@H]3O[C@H]1C[C@H](N)[C@H](O)[C@H](C)O1` [Daunorubicin] was tested, and the “Kcc2 promoter-driven luciferase activity” value was inactive: 0.214. `CCN1CCC(O)(/C=C/c2ccc(C)cc2)C(C(=O)/C=C/c2ccc(C)cc2)C1` (centres undefined) [2-Propen-1-one, hydrochloride] was tested, and the “Kcc2 promoter-driven luciferase activity” value was inactive: 0.8. With `O=C(CCCN1CCC(C(O)c2ccc(F)cc2)CC1)c1ccc(F)cc1` (centres undefined) [Dihydrolenperone] the “Kcc2 promoter-driven luciferase activity” value was inactive: 1.06. `COC1=C(N)C(=O)c2nc(-c3nc(C(=O)O)c(C)c(-c4ccc(OC)c(OC)c4O)c3N)ccc2C1=O` [Streptonigrin] was tested, and the “Kcc2 promoter-driven luciferase activity” value was inactive: 0.06. In the case of `O=C(Nc1cccc(C(F)(F)F)c1)C(=O)C(C(=O)c1ccc(Cl)c(Cl)c1)C1OC(=O)c2ccccc21` (centres undefined), the “Kcc2 promoter-driven luciferase activity” value is reported as inactive: 0.93. With `COc1nc(C(Cl)(Cl)Cl)c(Cl)c(OC)c1Cl` [Penclomedine] the “Kcc2 promoter-driven luciferase activity” value was inactive: 1.13. In the case of `O=C1/C(=C/c2ccc([N+](=O)[O-])cc2)Sc2scc(-c3cccc([N+](=O)[O-])c3)[n+]21`, the “Kcc2 promoter-driven luciferase activity” value is reported as inactive: 0.85. With `CC[n+]1c(-c2ccccc2)c2cc(N)ccc2c2ccc(N)cc21` [ETHIDIUM BROMIDE; Homidium bromide] the “Kcc2 promoter-driven luciferase activity” value was inactive: 1.04. With `Nc1nncs1` [2-Amino-1,3,4-thiadiazole] the “Kcc2 promoter-driven luciferase activity” value was active: 1.27. For `Cc1ccc(CC2(OCCN(C)C)CCC(C(C)(C)C)CC2)cc1` (centres undefined), the “Kcc2 promoter-driven luciferase activity” value was inactive: 0.723 and inactive: 0.958. With `CCN(CC)CCOC(=O)Cc1cccc2c(=O)cc(-c3ccccc3)oc12` [Mitoflaxone 2-(diethylamino)ethyl ester hydrochloride] the “Kcc2 promoter-driven luciferase activity” value was inactive: 1. With `O[C@@H]([C@H](O)[C@H](O)CBr)[C@H](O)CBr` [Dibromomannitol] the “Kcc2 promoter-driven luciferase activity” value was inactive: 1. In the case of `C[CH2][Ge]([CH2]C)([CH2]C)[O]C(=O)CCC(=O)[O][Ge]([CH2]C)([CH2]C)[CH2]C` [Bis(Triethylgermyl) Butanedioate], the “Kcc2 promoter-driven luciferase activity” value is reported as inactive: 0.98. In the case of `COc1ccc2cccc(C(=N)c3ccc(C)c4c3CCC4)c2c1` [(7-Methoxy-1-naphthyl)-(7-methylindan-4-yl)methanimine], the “Kcc2 promoter-driven luciferase activity” value is reported as inactive: 1.13. For `Nc1nc(SCc2ccccc2Cl)c2ncn(C3OC(CO)C(O)C3O)c2n1` (centres undefined), the “Kcc2 promoter-driven luciferase activity” value was inactive: 0.43. With `Nc1nccc2c1ncn2C1C=C(CO)C(O)C1O` (centres undefined) [3-Deazaneplanocin, hydrochloride] the “Kcc2 promoter-driven luciferase activity” value was inactive: 0.96. In the case of `C=C1C(=O)C23CC[C@@H]4C(C)(C(=O)OC)CCCC4(C)[C@@H]2CCC1(O)C3` (some centres undefined), the “Kcc2 promoter-driven luciferase activity” value is reported as inactive: 0.963. `CC(=O)N(C)c1ccc(Nc2cc(C)[nH]c3ccc4ncnc4c23)cc1` [Acodazole hydrochloride] was tested, and the “Kcc2 promoter-driven luciferase activity” value was inactive: 1.1. `COc1cc(OC)c2c(C)cc(=O)oc2c1` [5,7-Dimethoxy-4-methylchromen-2-one] was tested, and the “Kcc2 promoter-driven luciferase activity” value was inactive: 1.09. `O=C1C=C(N2CCNCC2)C(=O)c2c(O)ccc(O)c21` [2-(1-Piperazino)naphthazarin] was tested, and the “Kcc2 promoter-driven luciferase activity” value was inactive: 0.36. For `COC(=O)C1(C)CCCC2(C)c3cc(OC)ccc3C(=O)C(Br)C12` (centres undefined), the “Kcc2 promoter-driven luciferase activity” value was inactive: 1. In the case of `O=C1CCCCCCCCCCCCCCCO1` [Hexadecanolactone], the “Kcc2 promoter-driven luciferase activity” value is reported as inactive: 1.06. For `CC(=O)OCCN1c2ccccc2Sc2cnccc21` [2-Pyrido[3,4-b][1,4]benzothiazin-5-ylethyl acetate], the “Kcc2 promoter-driven luciferase activity” value was inactive: 0.77. `O=C1C(Cl)=C(N2CCN(C3=C(Cl)C(=O)c4ccccc4C3=O)CC2)C(=O)c2ccccc21` [2,2'-Piperazine-1,4-diylbis(3-chloronaphthoquinone)] was tested, and the “Kcc2 promoter-driven luciferase activity” value was inactive: 0.41. In the case of `CC1CC(C)(O)C2C3(C)CCCC2(COC3=O)C12CCC1(CCOC1=O)O2` (centres undefined) [Leonotis Nepetaefolia Extract], the “Kcc2 promoter-driven luciferase activity” value is reported as inactive: 1.08. With `C/C(=N\NC(=S)N(C)C)c1ccccn1.[Cu][Br]` [Copper,N-dimethyl-hydrazinecarbothioamidato-N,N,S]-] the “Kcc2 promoter-driven luciferase activity” value was inactive: 1.07. `C=C1C(=O)OC2CC1C(O)C/C(C)=C/CC/C(C)=C/C(O)CC2C` (centres undefined) [Crassin] was tested, and the “Kcc2 promoter-driven luciferase activity” value was inactive: 1.21. For `CC(=O)N[C@@H](CCC(=O)C=[N+]=[N-])C(=O)O` [Duazomycin], the “Kcc2 promoter-driven luciferase activity” value was inactive: 0.54. With `C=C1C(=O)OCC2C(C(=O)O)=CC3C(C)C(C)=CC123` (centres undefined) the “Kcc2 promoter-driven luciferase activity” value was inactive: 1.01. In the case of `O=C(ON=C1c2ccccc2C(Br)C(Br)c2ccccc21)c1ccccc1` (centres undefined), the “Kcc2 promoter-driven luciferase activity” value is reported as inactive: 1.22. `C=CC(=O)N1C/C(=C\c2ccc(Cl)cc2)C(=O)/C(=C/c2ccc(Cl)cc2)C1` [1-Acryloyl-3,5-bis(4-chlorobenzylidene)piperidine-4-one] was tested, and the “Kcc2 promoter-driven luciferase activity” value was inactive: 0.8. In the case of `NC1=C(Br)C(=O)c2ncccc2C1=O` [6-amino-7-bromoquinoline-5,8-dione], the “Kcc2 promoter-driven luciferase activity” value is reported as inactive: 0.29. With `BrCCC[P+](c1ccccc1)(c1ccccc1)c1ccccc1` [(3-Bromopropyl)triphenylphosphonium bromide] the “Kcc2 promoter-driven luciferase activity” value was inactive: 0.46. With `CN(C)CCCCN1CCc2c(n(C)c3ccccc23)C1=O` the “Kcc2 promoter-driven luciferase activity” value was inactive: 0.75. `O=C1C(C(O)(C(F)(F)F)C(F)(F)F)CCC1C(O)(C(F)(F)F)C(F)(F)F` (centres undefined) was tested, and the “Kcc2 promoter-driven luciferase activity” value was inactive: 0.96. In the case of `O=[N+]([O-])c1cc(C(F)(F)F)cc([N+](=O)[O-])c1CCl` [2-(chloromethyl)-1,3-dinitro-5-(trifluoromethyl)benzene], the “Kcc2 promoter-driven luciferase activity” value is reported as inactive: 1.03. For `CC(C)=CC1C(C(=O)O)C1(C)C` (centres undefined) [Chrysanthemic Acid], the “Kcc2 promoter-driven luciferase activity” value was inactive: 1.13.
